Results are given in words; binding and its absence hold for the method and conditions named. Some entries that bind do so weakly or less than the wild type.
Experiments:
Assay in all cases: flow cytometry on cells; transduced WOP cells incubated 1 h at 37°C in neat supernatant containing EphA2-Fc; detected with Alexa 488 anti mouse IgG
[1] = target: T1, mouse Ephrin B1 on transduced WOP cells (mouse) (UniProt P52795)
T1 sequence: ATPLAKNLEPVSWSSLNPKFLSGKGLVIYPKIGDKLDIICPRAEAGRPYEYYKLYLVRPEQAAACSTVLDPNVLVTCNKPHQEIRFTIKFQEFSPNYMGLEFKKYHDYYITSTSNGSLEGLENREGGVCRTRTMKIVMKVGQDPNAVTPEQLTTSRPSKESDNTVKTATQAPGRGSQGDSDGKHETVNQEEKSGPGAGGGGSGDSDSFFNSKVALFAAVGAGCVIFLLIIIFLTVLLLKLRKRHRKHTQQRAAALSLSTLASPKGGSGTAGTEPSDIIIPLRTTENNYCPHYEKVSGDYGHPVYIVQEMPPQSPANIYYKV

Chains of the proteins cited; added tags and fusions are not shown. Residues count along the entry.
UniProt P52800, residues 29-336: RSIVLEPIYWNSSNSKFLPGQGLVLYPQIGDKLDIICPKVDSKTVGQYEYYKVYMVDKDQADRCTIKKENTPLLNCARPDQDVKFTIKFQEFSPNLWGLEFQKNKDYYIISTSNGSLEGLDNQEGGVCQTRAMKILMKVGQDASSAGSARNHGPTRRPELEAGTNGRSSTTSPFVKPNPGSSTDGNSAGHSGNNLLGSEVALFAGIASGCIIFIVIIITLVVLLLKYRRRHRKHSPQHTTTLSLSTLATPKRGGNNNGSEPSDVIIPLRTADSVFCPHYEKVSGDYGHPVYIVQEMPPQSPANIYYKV
UniProt P29317, residues 24-537: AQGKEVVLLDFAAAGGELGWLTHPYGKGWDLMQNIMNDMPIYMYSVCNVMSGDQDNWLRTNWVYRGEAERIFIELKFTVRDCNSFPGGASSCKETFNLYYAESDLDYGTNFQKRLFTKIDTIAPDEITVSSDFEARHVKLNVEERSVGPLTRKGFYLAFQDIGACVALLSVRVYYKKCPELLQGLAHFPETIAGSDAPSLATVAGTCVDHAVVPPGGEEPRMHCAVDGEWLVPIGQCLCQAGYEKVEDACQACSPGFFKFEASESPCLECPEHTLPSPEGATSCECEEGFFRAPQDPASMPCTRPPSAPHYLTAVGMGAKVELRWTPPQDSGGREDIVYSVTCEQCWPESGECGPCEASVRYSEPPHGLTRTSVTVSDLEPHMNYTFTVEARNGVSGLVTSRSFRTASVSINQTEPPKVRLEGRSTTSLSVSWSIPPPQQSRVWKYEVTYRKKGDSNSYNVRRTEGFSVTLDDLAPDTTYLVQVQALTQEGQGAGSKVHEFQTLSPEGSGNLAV

[2] = target: T2, mouse Ephrin A4 on transduced WOP cells (mouse) (UniProt O08542)
T2 sequence: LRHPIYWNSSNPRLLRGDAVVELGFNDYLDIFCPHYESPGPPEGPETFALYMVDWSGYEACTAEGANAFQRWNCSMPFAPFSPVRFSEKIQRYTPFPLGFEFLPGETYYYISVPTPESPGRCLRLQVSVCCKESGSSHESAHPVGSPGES

[3] = target: T3, mouse Ephrin A5 on transduced WOP cells (mouse) (UniProt O08543)
T3 sequence: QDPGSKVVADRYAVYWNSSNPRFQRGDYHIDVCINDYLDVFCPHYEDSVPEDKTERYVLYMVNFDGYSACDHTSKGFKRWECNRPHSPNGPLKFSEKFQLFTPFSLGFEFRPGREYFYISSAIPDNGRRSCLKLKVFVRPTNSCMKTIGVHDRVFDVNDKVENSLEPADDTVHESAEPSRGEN

[4] = target: T4, mouse Ephrin A1 on transduced WOP cells (mouse) (UniProt P52793)
T4 sequence: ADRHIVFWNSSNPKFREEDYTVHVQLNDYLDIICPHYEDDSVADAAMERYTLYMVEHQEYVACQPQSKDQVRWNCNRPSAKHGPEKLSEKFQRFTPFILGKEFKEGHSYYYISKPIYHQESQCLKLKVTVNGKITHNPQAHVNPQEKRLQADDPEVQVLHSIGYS

[5] = target: T5, mouse Ephrin A2 on transduced WOP cells (mouse) (UniProt P52801)
T5 sequence: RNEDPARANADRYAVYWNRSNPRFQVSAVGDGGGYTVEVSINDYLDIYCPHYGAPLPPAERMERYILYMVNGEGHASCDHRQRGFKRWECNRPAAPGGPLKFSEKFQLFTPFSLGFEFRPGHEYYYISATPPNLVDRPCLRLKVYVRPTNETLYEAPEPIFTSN

[6] = target: mouse Ephrin B2 on transduced WOP cells (mouse) (UniProt P52800)
[7] = target: T6, mouse Ephrin A3 on transduced WOP cells (mouse) (UniProt O08545)
T6 sequence: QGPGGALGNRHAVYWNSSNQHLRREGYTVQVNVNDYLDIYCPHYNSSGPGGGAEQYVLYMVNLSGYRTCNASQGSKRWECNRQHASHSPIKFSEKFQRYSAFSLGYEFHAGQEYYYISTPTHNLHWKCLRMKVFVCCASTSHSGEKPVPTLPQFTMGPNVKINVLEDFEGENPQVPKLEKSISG

[8] = target: T7, human Ephrin A4 on transduced WOP cells (human) (UniProt P52798)
T7 sequence: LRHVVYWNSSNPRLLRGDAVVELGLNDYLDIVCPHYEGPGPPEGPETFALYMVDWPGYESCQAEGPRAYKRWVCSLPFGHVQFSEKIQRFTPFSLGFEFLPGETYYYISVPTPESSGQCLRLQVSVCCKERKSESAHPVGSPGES

“soluble Fc-tagged EphA2 (from UniProt P29317 24-537) (Fc fusion)” was tested, and the binding [1] was “binds weakly”, the binding [2] was “binds” and the binding [3] was “binds”. The binding [4] was “binds”, the binding [5] was “binds” and the binding [6] was “binds weakly”. The binding [7] was “binds” and the binding [8] was “binds”.
